# Primary screen of a compound library

Chains of the proteins cited; added tags and fusions are not shown. Residues count along the entry.
UniProt Q4DA54, 1-478: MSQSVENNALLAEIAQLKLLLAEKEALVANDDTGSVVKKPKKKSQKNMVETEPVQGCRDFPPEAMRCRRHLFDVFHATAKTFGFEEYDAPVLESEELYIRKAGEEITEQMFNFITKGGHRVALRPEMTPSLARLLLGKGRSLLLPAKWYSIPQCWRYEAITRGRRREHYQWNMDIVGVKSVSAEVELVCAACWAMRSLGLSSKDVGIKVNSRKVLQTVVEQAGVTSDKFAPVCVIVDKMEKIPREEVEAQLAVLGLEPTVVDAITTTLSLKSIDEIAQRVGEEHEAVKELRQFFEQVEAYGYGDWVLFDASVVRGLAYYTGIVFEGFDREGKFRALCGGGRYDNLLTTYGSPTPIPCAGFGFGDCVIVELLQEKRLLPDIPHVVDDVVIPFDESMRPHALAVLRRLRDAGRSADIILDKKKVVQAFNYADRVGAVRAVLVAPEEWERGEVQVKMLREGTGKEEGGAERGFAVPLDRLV
UniProt P9WPC5, whole entry: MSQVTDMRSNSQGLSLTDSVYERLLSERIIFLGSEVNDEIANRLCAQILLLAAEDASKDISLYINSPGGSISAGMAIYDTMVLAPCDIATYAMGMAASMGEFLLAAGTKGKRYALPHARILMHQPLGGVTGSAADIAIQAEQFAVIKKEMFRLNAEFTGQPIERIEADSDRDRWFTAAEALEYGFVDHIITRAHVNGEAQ
UniProt P9WPC3, whole entry partner: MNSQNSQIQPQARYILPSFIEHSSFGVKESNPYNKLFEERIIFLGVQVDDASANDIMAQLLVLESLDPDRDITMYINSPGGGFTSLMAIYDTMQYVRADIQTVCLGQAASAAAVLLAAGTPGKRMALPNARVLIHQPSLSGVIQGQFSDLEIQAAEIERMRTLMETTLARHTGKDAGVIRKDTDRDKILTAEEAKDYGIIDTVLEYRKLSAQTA
UniProt Q8IDJ8, 1-583: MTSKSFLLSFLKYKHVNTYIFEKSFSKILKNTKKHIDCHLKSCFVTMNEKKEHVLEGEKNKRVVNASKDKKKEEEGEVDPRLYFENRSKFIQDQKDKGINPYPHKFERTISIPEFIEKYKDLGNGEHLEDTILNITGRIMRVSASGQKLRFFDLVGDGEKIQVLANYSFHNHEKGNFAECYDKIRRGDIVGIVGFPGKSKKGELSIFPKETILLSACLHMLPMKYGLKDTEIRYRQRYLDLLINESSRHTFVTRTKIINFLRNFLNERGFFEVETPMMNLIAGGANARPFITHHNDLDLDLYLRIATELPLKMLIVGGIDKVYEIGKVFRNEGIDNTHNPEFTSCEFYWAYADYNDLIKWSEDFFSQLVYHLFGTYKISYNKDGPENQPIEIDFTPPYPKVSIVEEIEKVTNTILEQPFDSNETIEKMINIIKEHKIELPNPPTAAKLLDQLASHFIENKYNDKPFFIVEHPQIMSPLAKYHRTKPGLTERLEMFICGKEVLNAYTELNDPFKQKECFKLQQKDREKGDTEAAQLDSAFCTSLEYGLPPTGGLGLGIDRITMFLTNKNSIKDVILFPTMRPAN
UniProt A4I591, 1-473: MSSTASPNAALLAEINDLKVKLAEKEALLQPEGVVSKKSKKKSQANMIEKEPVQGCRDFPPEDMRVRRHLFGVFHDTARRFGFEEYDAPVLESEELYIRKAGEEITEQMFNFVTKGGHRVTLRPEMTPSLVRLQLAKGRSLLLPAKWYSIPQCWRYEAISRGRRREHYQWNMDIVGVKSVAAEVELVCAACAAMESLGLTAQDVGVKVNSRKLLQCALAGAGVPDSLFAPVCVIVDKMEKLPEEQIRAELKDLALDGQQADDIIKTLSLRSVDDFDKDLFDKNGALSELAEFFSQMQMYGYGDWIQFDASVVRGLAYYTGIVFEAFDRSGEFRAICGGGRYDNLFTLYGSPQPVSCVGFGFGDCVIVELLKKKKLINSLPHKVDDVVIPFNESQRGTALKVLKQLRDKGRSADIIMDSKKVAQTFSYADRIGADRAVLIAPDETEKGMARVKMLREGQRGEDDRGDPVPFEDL

The values are deposited in ChEMBL (CHEMBL3988442, “University of Dundee, Small-Polar-MMV Screening Library” (2021)).

Values are the deposited “Percent Effect”, in %. The record does not define 0% and 100%; most values in the screen are far below 50% and negative numbers occur (in some assays of this library far below -100). Compounds were drawn at random from those tested, without regard to their results. A dash means the value is not listed here; it may have been measured.

A: 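Enzyme assay of histidyl-tRNA synthetase; the read-out is not stated. Target: Histidine-tRNA ligase, Trypanosoma cruzi CL Brener (UniProt Q4DA54). Concentration: 30 µM. The record gives no direction; compounds that gave an IC50 in retests scored well above the rest, so higher reads as stronger inhibition. Of about 69,000 compounds tested this way, about 31 (0.045%) reached 50% or more in at least one test.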
B: 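Protease assay of ClpP1P2, read by the AMC dye that it sets free. Target: ClpP1P2, Mycobacterium tuberculosis (UniProt P9WPC5 and UniProt P9WPC3). Concentration: 50 µM. Direction is inferred from only a few compounds that gave an IC50; most scored high, so higher reads as stronger inhibition. Most other retested compounds had strongly negative values. Of about 69,000 compounds tested this way, about 10 (0.015%) reached 50% or more in at least one test.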
C: 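Enzyme assay of the cytosolic lysyl-tRNA synthetase in 384-well plates, read by luminescence. Target: Lysine-tRNA ligase, Plasmodium falciparum 3D7 (UniProt Q8IDJ8). Compounds at 30 µM. Direction is inferred from only a few compounds that gave an IC50; most scored high, so higher reads as stronger inhibition. About 69,000 compounds were tested under these conditions; 0.071% (about 49) showed 50% or more at least once.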
D: 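Histidine-tRNA ligase, Leishmania infantum (UniProt A4I591). Enzyme assay of histidyl-tRNA synthetase; the read-out is not stated. Tested at 30 µM. Direction is inferred from retests: higher values go with stronger inhibition. The assay is labelled LdHisRS but filed under L. infantum. Size under these conditions: about 69,000 compounds, about 410 of them at 50% or above in at least one test.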

compound	A	B	C	D
Cc1nc(-n2nc(C3CC3)cc2NC(=O)C(C)C)[nH]c(=O)c1C	0	-1.044	-0.5208	15.58
CCc1nc(C2CCCN(C(=O)c3cccnc3O)C2)no1 (configuration not stated)	3.509	-9.153	-1.397	10.91
CCC(CC)C(=O)N1CCN(Cc2cc(-c3ccncc3)nn2C)CC1	11.7	13.8	9.013	15.62
Cc1[nH]c2c(C)cccc2c1CC(=O)N(C)CCN(C)C	3.788	-13.85	0.2264	12.68
N#Cc1cccc(CN(CCO)Cc2ccsc2)c1	4.878	-12.98	1.715	10.53
Cc1cc(NC(=O)Cn2cnc(-c3cccs3)cc2=O)no1	0	1.512	-1.437	17.39
O=C(c1cc(Cl)c2c(c1)OCCCO2)N(CC1CCOC1)C1CC1 (configuration not stated)	10.98	4.497	2.6	14.89
Cc1ncsc1CCN(C)C(=O)CN1CCCCC1=O	-1.685	10.49	-0.9372	20.51
Cc1cncc(C2CCN(Cc3cnc(C)nc3)CC2)n1	3.955	-11.48	1.404	9.79
CCn1nccc1CNC(=O)Cn1cc2c(n1)c(C)nn2C(C)C	12.87	5.439	1.647	18.68
COc1ccc(Oc2cccnc2)cc1CN1CCCC1	-1.932	-27.27	2.598	25.83
CCC1CCCN(C(=O)Cc2csc(-c3ncccn3)n2)C1 (configuration not stated)	-1.901	21.5	-1.661	31.2
CCCC1(NC(=O)C(c2ccccc2C)N(C)C)CC1 (configuration not stated)	-0.5618	1.407	1.728	15.38
CN(C(=O)Cc1ccccc1F)C1CCN(c2ccccn2)CC1	8.475	-12.89	0.4896	8.621
Cn1cc(C(=O)NC[C@@H]2OC[C@H]3CN(Cc4ccco4)CC[C@H]32)cn1	2.479	-6.375	0.9719	13.33
NC(=O)C1CCCN1Cc1ccccc1NC(=O)Cc1cccs1 (configuration not stated)	7.143	-2.105	0.3249	-2.857
COc1ccc(/C=C/CN2CCC3(C2)CN(C)C(=O)O3)cc1 (configuration not stated)	5.759	-4.991	3.423	10.75
O=c1c(NCCc2ccc(O)cc2)c(NCc2ccccn2)c1=O	-1.242	-8.505	5.146	10
Cc1cc(C)cc(C2(C(=O)NCC(C)CN3CCCC3=O)CC2)c1 (configuration not stated)	6.878	-3.555	12.15	14.71
COCCNC(=O)C1CN(Cc2cccc(C)n2)Cc2ccnn2C1 (configuration not stated)	6.897	-4.122	-0.7198	14.71
OCCN(Cc1cccnc1)c1ncc(Br)cn1	6.061	3.806	7.145	11.11
Cc1nc(-c2cn(CCN)nn2)n(-c2ccc(C(F)(F)F)cc2)n1	0.9804	-6.227	2.727	4.8
CCOCCCNC(=O)c1nc2c(s1)CCCN2c1ccc(C)nn1	1.493	-3.982	7.307	16.22
CCC(C)NC(=O)NCCCn1nc2ccccn2c1=O (configuration not stated)	0	8.099	4.214	47.62
NCC1CCN(c2cnn(CCCn3cccn3)c(=O)c2)CC1	11.49	12.36	5.552	10.26
CCCc1nnc(N2CC[C@](C)(O)[C@H](C)C2)s1	1.212	5.719	4.214	18.18
COC(=O)c1ccc(-c2ccc(/C=C3\C(=O)NC(=N)N3C)o2)cc1	-3.659	12.73	-3.248	7.895
OC1(Cn2ccnc2)CCN(C[C@]2(O)CCCN3CCCC[C@@H]32)CC1	-3.017	-13.61	2.198	16.46
CN(C)C(=O)CS(=O)(=O)Cc1ccn(-c2cccc(F)c2)n1	-4.433	7.606	5.046	14.29
O=S(=O)(Nc1ccc(N2CCOCC2)cn1)c1cccc(F)c1	8.374	-26.07	5.643	25
COCCNc1cc(-c2ccccc2C(=O)O)c2cc[nH]c2n1	2.632	-18.43	1.806	14.52
Cc1ccc(N2C[C@H]3CCC[C@@H](CN4CCOCC4)[C@H]3C2)nn1	6.952	-1.05	4.05	21.37
Cc1ccc(C(=O)NCCS(C)(=O)=O)c(=O)[nH]1	-0.5348	3.941	10.06	7.692
Cc1cc(-c2cnc(N3CCCCCC3)nc2-c2cccnc2C)on1	2.247	-2.485	0.8899	8
COC(=O)C(NC(=O)COC1CCCC1)c1cc(F)ccc1F (configuration not stated)	-0.7634	5.573	4.347	16.44
CC(Cn1cccn1)NC(=O)NCc1cccnc1 (configuration not stated)	6.122	-47.5	0.5825	11.5
CC(C)OCCCNC(=O)c1c(-n2cnnn2)sc2c1CCCC2	4.969	-23.49	3.777	10
CN(CCCc1ccc(C(F)(F)F)cc1)Cc1nccn1C	6.667	1.624	-0.2159	6.349
Oc1c(F)cc(CNc2cccc(-c3nnc[nH]3)c2)cc1F	11.52	-34.3	9.608	22.22
Oc1nc(-c2cnccn2)nc2c1CCN(Cc1ccccn1)C2	7.447	-8.267	3.537	19.79
Cc1cnn(CC2CCCCN2CC(=O)Nc2c(C)n[nH]c2C)c1 (configuration not stated)	-8.647	6.469	3.508	13.51
Cc1cc(C(F)(F)F)cc(N2C[C@@H](CN(C)CCO)[C@@H](CO)C2)n1	8.537	-12.81	8.837	22.89
CC1Cc2ccccc2N1C(=O)Cn1nc(-c2cccs2)ccc1=O (configuration not stated)	2.632	-12.41	2.334	18.44
CC(C)N1CC(C(=O)N2CCN(CCn3cccc3)CC2)CC1=O (configuration not stated)	4.348	12.8	4.675	21.21
Cc1nn(C(C)C)c(C)c1NC(=O)c1ccccc1	1.653	0.2181	0.9719	19.05
CC(=O)NCCC(=O)Nc1cccc(N2CCN(CC3CC3)CC2)c1	12.7	1.571	4.444	21.21
Cc1c(OCC(=O)NCc2ccccc2)c(=O)ccn1C	-1.754	8.418	0.2182	7.895
O=C(NCC(F)(F)F)C1CSCN1S(=O)(=O)c1cccc(F)c1 (configuration not stated)	1.22	8.708	-3.424	6.024
Cc1[nH]ncc1CCCNC(=O)Nc1ccc(C#N)cc1	-0.8333	-	3.261	23.08
O=C(CSc1nc2c(cnn2CCO)c(=O)[nH]1)NC1CCCCC1	8.543	6.675	-5.082	11.24
CC(C)=CCC/C(C)=C/CC(C)(C)CNCc1ccco1	13.17	-16.38	7.537	23.73
Cc1cc(C(N)=O)ccc1NC(=O)c1nc(N2CCCC2)ncc1Cl	3.743	3.388	16.2	0
CCCC(=O)N1CCC(N2CC[C@@](O)(CCOC)[C@H](C)C2)CC1	3.004	-8.078	4.476	8.197
COc1ccc(Br)c(NC(=O)NCc2cnn(C)c2)c1	0.5525	0.9896	-1.946	8.29
CCc1nnc(CN2CCC3(CCC(=O)N(C4CCCC4)C3)CC2)o1	10.24	-3.634	0.3717	21.98
Cc1nc(NCC2CC2)nc2c1COCC21CCN(C(=O)NC(C)C)C1 (configuration not stated)	6.863	6.342	3.18	14
O=S1(=O)NCC2(CCCN(Cc3cccnc3)C2)Oc2ncccc21 (configuration not stated)	2.959	11.64	-3.035	1.379
CCCc1ncc(C(=O)c2ccc(OC)cc2)n1C	0.5181	1.026	-1.492	-10.11
CC(C)(C)c1cn2nc(N3CCCCC3Cn3cncn3)sc2n1 (configuration not stated)	6.667	-12.24	-7.243	-3.774
O=C(COc1ccc(-c2ccccc2)nc1)NCC1CC1	3.867	-8.664	2.999	0
Cc1csc(N2CCN(CC(=O)Nc3cc(C)nn3C)CC2C)n1 (configuration not stated)	7.289	-35.32	-0.242	23.85
Cn1cc(CN2CCC3(CC2)NC(=O)CC3c2ccncc2)cn1 (configuration not stated)	10.74	4.079	5.05	18.18
C[C@@H]1CN(Cc2cccnc2)C[C@]1(C)O	0	-11.07	2.445	6.522

For reference, 3 entries once more:

compound	A	B	C	D
COc1ccc(Oc2cccnc2)cc1CN1CCCC1	-1.932	-27.27	2.598	25.83
CCCC1(NC(=O)C(c2ccccc2C)N(C)C)CC1 (configuration not stated)	-0.5618	1.407	1.728	15.38
OCCN(Cc1cccnc1)c1ncc(Br)cn1	6.061	3.806	7.145	11.11